Assay results published in article PMC10931608.
No constants are given. Whether binding was seen depends on the method and setting. In cells and extracts the contact can be indirect. Some entries that bind do so weakly or less than the wild type.

Target: Mitotic spindle positioning (MISP) (human) (UniProt Q8IVT2)
Test: co-IP; 293FT cells: control, MISP overexpression, OIP5 overexpression, co-overexpression; RIPA lysis buffer with protease and phosphatase inhibitors; IP with rabbit polyclonal anti-MISP or anti-OIP5 antibody on Dynabeads Protein A; Western blot with anti-MISP or anti-OIP5

| Substance | binding |
| --- | --- |
| GFP-tagged Opa interacting protein 5 (OIP5), exogenous (from UniProt O43482 1-229) | binds |
| Opa interacting protein 5 (OIP5), endogenous in 293FT cells (from UniProt O43482 1-229) | binds |
